Source: PMC5643531
No constants are given. Whether binding was seen depends on the method and setting. In cells and extracts the contact can be indirect. Binding can be weak; no strength is given. Sequences can lack the tags named with a protein.

What was measured:
[1] = biological target: Frizzled8 receptor, Myc tag (Fz8-Myc) (zebrafish); assay: co-IP; HEK293 cells transfected with Flag-tagged OTG/Otg and Fz8-Myc constructs; lysis in 20 mM Hepes pH 7.9, 300 mM NaCl, 100 mM KCl, 10 mM EDTA, 0.2% NP-40, 10% glycerol; IP with anti-FLAG or anti-Myc antibody on protein A-agarose, immunoblot for Myc or Flag
[2] = biological target: Fz8ΔC-Myc (Fz8 lacking the cytoplasmic domain) (zebrafish); assay: as above

binding [1]: binds
binding [2]: binds
B1: OTTOGI (OTG), human, C-terminal Flag tag (OTG-Flag) (protein, UniProt Q8TB68 1-274)
chain: MVMSQGTYTFLTCFAGFWLIWGLIVLLCCFCSFLRRRLKRRQEERLREQNLRALELEPLELEGSLAGSPPGLAPPQPPPHRSRLEAPAHAHSHPHVHVHPLLHHGPAQPHAHAHPHPHHHALPHPPPTHLSVPPRPWSYPRQAESDMSKPPCYEEAVLMAEPPPPYSEVLTDTRGLYRKIVTPFLSRRDSAEKQEQPPPSYKPLFLDRGYTSALHLPSAPRPAPPCPALCLQADRGRRVFPSWTDSELSSREPLEHGAWRLPVSIPLFGRTTAV
